Data: patent publication US6602849 (dated 2003)

Assay: general procedure: solution-phase peptide synthesis; Fmoc-amino acid OSu/OAt active esters, Fmoc-Val-F; DCC/HOBt or EDC/HOBt for cycl
Details: lyophilized from 0.5% HCl; for step yield: late stage modification step; for cyclisation yield: cyclisation step

Substance | step yield | also measured
1-((2-Ethoxy-2-oxo)ethyl)-2-(1-(S)-((Fmoc-Trp-D-Trp-Lys(Boc)-Tyr(OBzl))-amino)-2-phenylethyl)-(3-methoxyphenyl)-imidazole | 80% | 
2-(1-(S)-((Fmoc-Trp-D-Trp-Lys(Cbz)-Tyr(Bzl))-amino)-2-phenylethyl)-4-(3-methoxyphenyl)-1-(triphenylmethyl)-imidazole |  | isolated yield (whole synthesis): 57%
Cyclo[Trp-D-Trp-Lys(Boc)-Tyr(Bzl)-PheΨ(4-(3-methoxyphenyl)imidazole)-Gly] |  | cyclisation yield: 46%
Cyclo[Trp-D-Trp-Lys(Cbz)-Val-PheΨ(4-(3-methoxyphenyl)imidazole)-Gly] |  | cyclisation yield: 71%
Cyclo[Trp-D-Trp-Lys-Val-PheΨ(4-(3-hydroxyphenyl)imidazole)-Gly] | 29% | 
Cyclo[Trp-D-Trp-Lys-Val-PheΨ(4-(3-methoxyphenyl)imidazole)-Gly] | 14% | 
Cyclo[Tyr(OBzl)-D-Trp-Lys(Cbz)-Val-PheΨ(4-(3-methoxyphenyl)imidazole)-Gly] |  | cyclisation yield (from intermediate 1d): 48%
Cyclo[Tyr(OBzl)-D-Trp-Lys-Val-PheΨ(4-(3-methoxyphenyl)imidazole)-Gly] | 21% | 
Cyclo[Tyr-D-Trp-Lys-Val-PheΨ(4-(3-Methoxyphenyl)imidazole)-Gly] | 29% | 
